Test results taken from the supplement of paper PMC10338343.
± gives the standard deviation. The list shows a part of the results, in another mix than the full data. Many of these values have a large error.

What follows are sequences tested on MILI (PIWIL2) piRISC loaded with piRNA #1 (26 nt) (assay: pre-steady-state target cleavage rate (min^-1); MIWI and MILI are mouse PIWI proteins and EfPiwi is from a freshwater sponge; tags in brackets are library labels; higher = faster piRNA-guided slicing of the target). Details: guide: piRNA #1 5'p-UGAGGUAGUAGGUUGUAUAGUAUCCA; auxiliary factor: 500 nM mouse GTSF1.
In short: (§1)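 Active affinity-purified piRISC carrying one synthetic guide (1 nM) was mixed with a transcribed, DNA-blocked target RNA library […] in HEPES–potassium acetate buffer at 33 °C for 0–8 or 0–960 min, with or without 500 nM GTSF1 partner protein. Uncleaved targets were then sequenced and normalised to depth and to weakly complementary targets. Three trials were pooled, and k3 was capped at 0.0001 min^-1. A burst-and-steady-state fit was applied to obtain the pre-steady-state cleavage rate.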
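Further: 1 nM active piRISC with 0.1 nM target library at 33 °C single turnover.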

Row | Sequence | pre-steady-state target cleavage rate
1 | GGAGUGGAUACUAUACAACCUACAACCACA | 0.00154 ± 0.0035
2 | GGAGACCUAUGAUUACAACCUACUAACUCA | 0.00194 ± 0.0043
3 | GGAGACCUAUGAUAACAACCUACUAACUCA | 0.00238 ± 0.0029
4 | GGAGACCUAUGAUAUCAACCUUCUACGUCA | 0.000156 ± 0.016
5 | GGAGACCUAUGAUAUGUAGCUACAACCUCA | 0.000345 ± 0.014
6 | GGAGACCUAUGAUAUCAACCUACUUGCUCA | 0.00113 ± 0.0046
7 | GGAGACCUAUGAUAUCAACCAACUUCCUCA | 0.000442 ± 0.011
8 | GGAGACCUAUGAUAUGUACCUACUACCUUCA | 0.000127 ± 0.017
9 | GGAGACCUAUGAUAUCACCCUACUACCUCA | 0.00113 ± 0.0056
10 | GGAGACCUAUGUAAACAACCUACUAGCUCA | 0.00495 ± 0.0023
11 | GGAGACCUAUGUAUACAACGUACAACCUCA | 0.00935 ± 0.0021
12 | GGAGACCUUACUAUACCAACCUACUACCUCA | 0.00685 ± 0.0036
13 | GGAGACCUAACUAUUCAACCAACUACCUCA | 0.00204 ± 0.0083
14 | GGAGACCAUACUAUACAACCUACUACUUCA | 0.189 ± 0.019
15 | GGAGACCUAUGAUAUCAACCUACUACCUGCA | 0.00116 ± 0.0058
16 | GGAGAGGAUACUAUACGAACCUACUACCUCA | 0.00135 ± 0.0045
17 | GGAGACCUUACUAUACAACCUGACUACCUCA | 0.00196 ± 0.0041
18 | GGAGACCUAUGAUAUGUUGCCACUACCUCA | 0.000826 ± 0.0077
19 | GGAGACCUAACUAUACAACCUCUACCUCA | 0.000453 ± 0.016
20 | GGAGACCUAUGAUUACAACCUACGUACCUCA | 0.00348 ± 0.0039

Row | Sequence | pre-steady-state target cleavage rate
21 | GGAGACCUAUGAUAUCCACCUACUACCUCA | 0.00138 ± 0.0056
22 | GGAGACCUAUGAUAUGUUGCUACUACCUUA | < 0.0001
23 | GGAGACCUAUGAUAUCAACCUACUACCGUCA | 0.0019 ± 0.0046
24 | GGAGACCUAUGUAUAGAACCUACUUCCUCA | 0.00289 ± 0.0033
25 | GGAGACCAUACUAUACAACCUGACUACCUCA | 0.00143 ± 0.0054
26 | GGAGACCUAUGUAUACACCUACUACCUCA | 0.00288 ± 0.0029
27 | GGAGACCUAUGAUAUCAACCUACUACCACA | 0.000844 ± 0.0066
28 | GGAGACCUAUGAAAUCAACCUACUACCUCA | 0.0014 ± 0.0038
29 | GGAGACCUAUGAUUACAACCUAUACCUCA | 0.000992 ± 0.0074
30 | GGAGACCUAUGAUAUGUUCCUACUUCGUCA | 0.000209 ± 0.019
31 | GGAGACCUAUGUAUACAACCAUGUACCUCA | 0.00173 ± 0.0035
32 | GGAGACCUAUGAUAACUACCUACUUCCUCA | 0.00205 ± 0.0038
33 | GGAGACCUAUGAUUACUACGUACUACCUCA | 0.00234 ± 0.0027
34 | GGAGACCUAUGUAUACAACCAACAACCUCA | 0.00225 ± 0.0034
35 | GGAGACCUAUGAUAUGUUCCAAGUACCUCA | 0.000399 ± 0.012
36 | GGAGACCUAUGAAUACUACGUACUACCUCA | 0.0019 ± 0.0028
37 | GGAGACCUAUGAAUAGCAACCUACUACCUCA | 0.00225 ± 0.0038
38 | GGAGACGAUACUAUACGAACCUACUACCUCA | 0.00117 ± 0.0071
39 | GGAGACCUAACUUUACAACCAACUACCUCA | 0.00215 ± 0.0081
40 | GGAGACCUAUGAUUACAACUCUACUACCUCA | 0.000308 ± 0.011

Each sequence was assayed on MIWI (PIWIL1) piRISC loaded with piRNA #1 (30 nt) in the same assay as above. Details: guide: piRNA #1 5'p-UGAGGUAGUAGGUUGUAUAGUAUCCAGAGG; auxiliary factor: 500 nM mouse GTSF1.
In short: as §1

Row | Sequence | pre-steady-state target cleavage rate
41 | GGAGUGGAUACUAUACAACCUACAACCACA | 0.00175 ± 0.003
42 | GGAGACCUAUGAUUACAACCUACUAACUCA | 0.0026 ± 0.0043
43 | GGAGACCUAUGAUAACAACCUACUAACUCA | 0.00215 ± 0.0038
44 | GGAGACCUAUGAUAUCAACCUUCUACGUCA | 0.000503 ± 0.009
45 | GGAGACCUAUGAUAUGUAGCUACAACCUCA | 0.000111 ± 0.024
46 | GGAGACCUAUGAUAUCAACCUACUUGCUCA | 0.000103 ± 0.02
47 | GGAGACCUAUGAUAUCAACCAACUUCCUCA | 0.000251 ± 0.011
48 | GGAGACCUAUGAUAUGUACCUACUACCUUCA | 0.000195 ± 0.012
49 | GGAGACCUAUGAUAUCACCCUACUACCUCA | 0.000854 ± 0.0036
50 | GGAGACCUAUGUAAACAACCUACUAGCUCA | 0.000998 ± 0.0057
51 | GGAGACCUAUGUAUACAACGUACAACCUCA | 0.00107 ± 0.0051
52 | GGAGACCUUACUAUACCAACCUACUACCUCA | 0.00216 ± 0.003
53 | GGAGACCUAACUAUUCAACCAACUACCUCA | 0.00312 ± 0.0058
54 | GGAGACCAUACUAUACAACCUACUACUUCA | 2.14 ± 0.14
55 | GGAGACCUAUGAUAUCAACCUACUACCUGCA | 0.000485 ± 0.0074
56 | GGAGAGGAUACUAUACGAACCUACUACCUCA | 0.00126 ± 0.006
57 | GGAGACCUUACUAUACAACCUGACUACCUCA | 0.00154 ± 0.0039
58 | GGAGACCUAUGAUAUGUUGCCACUACCUCA | 0.00046 ± 0.0051
59 | GGAGACCUAACUAUACAACCUCUACCUCA | 0.000125 ± 0.037
60 | GGAGACCUAUGAUUACAACCUACGUACCUCA | 0.00128 ± 0.0042

Row | Sequence | pre-steady-state target cleavage rate
61 | GGAGACCUAUGAUAUCCACCUACUACCUCA | 0.000171 ± 0.017
62 | GGAGACCUAUGAUAUGUUGCUACUACCUUA | 0.000126 ± 0.016
63 | GGAGACCUAUGAUAUCAACCUACUACCGUCA | 0.00018 ± 0.025
64 | GGAGACCUAUGUAUAGAACCUACUUCCUCA | 0.000402 ± 0.0066
65 | GGAGACCAUACUAUACAACCUGACUACCUCA | 0.0021 ± 0.0022
66 | GGAGACCUAUGUAUACACCUACUACCUCA | 0.0015 ± 0.0036
67 | GGAGACCUAUGAUAUCAACCUACUACCACA | 0.000133 ± 0.021
68 | GGAGACCUAUGAAAUCAACCUACUACCUCA | 0.000173 ± 0.018
69 | GGAGACCUAUGAUUACAACCUAUACCUCA | 0.000126 ± 0.022
70 | GGAGACCUAUGAUAUGUUCCUACUUCGUCA | 0.000346 ± 0.0095
71 | GGAGACCUAUGUAUACAACCAUGUACCUCA | 0.000336 ± 0.0051
72 | GGAGACCUAUGAUAACUACCUACUUCCUCA | 0.000571 ± 0.0075
73 | GGAGACCUAUGAUUACUACGUACUACCUCA | 0.000314 ± 0.0069
74 | GGAGACCUAUGUAUACAACCAACAACCUCA | 0.000584 ± 0.0041
75 | GGAGACCUAUGAUAUGUUCCAAGUACCUCA | 0.000126 ± 0.018
76 | GGAGACCUAUGAAUACUACGUACUACCUCA | 0.000527 ± 0.0082
77 | GGAGACCUAUGAAUAGCAACCUACUACCUCA | 0.000245 ± 0.013
78 | GGAGACGAUACUAUACGAACCUACUACCUCA | 0.00114 ± 0.007
79 | GGAGACCUAACUUUACAACCAACUACCUCA | 0.000363 ± 0.018
80 | GGAGACCUAUGAUUACAACUCUACUACCUCA | 0.000114 ± 0.018
